Reference: PMC5871876
The exact form of at least one protein or probe is not confirmed. Where cells or extracts were used, other partners may take part. For some assays here: At least one verdict was read from the data and is not stated in words by the source. Protein sequences can lack the tags named with them.

Tests used:
Assay in all cases: pull-down, UV cross-linking, MS
Conditions in all cases: tRNA competitor, absent from or subtracted against 74-95 RNA control; extra DTT, 30 ug tRNA, 160 ug yeast protein; protein in an extract; label: 3'-biotin
[1] = molecular target: T1, Arc1p (Saccharomyces cerevisiae M3 (wild type)) (UniProt P46672)
T1 sequence (looked up, limits assumed): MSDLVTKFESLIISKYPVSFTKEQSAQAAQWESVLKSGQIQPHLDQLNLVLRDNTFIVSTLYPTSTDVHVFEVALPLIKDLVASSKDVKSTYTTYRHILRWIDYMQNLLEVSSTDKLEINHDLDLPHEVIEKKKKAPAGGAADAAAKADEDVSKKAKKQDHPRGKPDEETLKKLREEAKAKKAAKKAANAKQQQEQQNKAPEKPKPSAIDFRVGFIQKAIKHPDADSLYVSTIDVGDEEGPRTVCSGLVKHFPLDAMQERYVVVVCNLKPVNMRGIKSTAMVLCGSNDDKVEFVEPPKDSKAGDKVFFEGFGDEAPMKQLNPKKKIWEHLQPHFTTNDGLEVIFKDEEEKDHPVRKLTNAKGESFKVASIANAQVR

[2] = molecular target: T2, Asc1 (Saccharomyces cerevisiae M3 (wild type)) (UniProt P38011)
T2 sequence (looked up, limits assumed): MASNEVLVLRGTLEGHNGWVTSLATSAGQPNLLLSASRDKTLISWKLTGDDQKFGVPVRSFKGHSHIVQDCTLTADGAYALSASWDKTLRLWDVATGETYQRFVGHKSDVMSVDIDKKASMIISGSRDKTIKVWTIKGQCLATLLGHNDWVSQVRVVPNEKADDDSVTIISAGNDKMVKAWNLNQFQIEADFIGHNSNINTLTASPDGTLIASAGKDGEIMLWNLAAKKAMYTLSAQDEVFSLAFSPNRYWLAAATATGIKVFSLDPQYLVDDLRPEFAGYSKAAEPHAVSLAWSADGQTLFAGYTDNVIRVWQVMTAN

[3] = molecular target: T3, HYP2 (eIF5a) (Saccharomyces cerevisiae M3 (wild type)) (UniProt P23301)
T3 sequence (looked up, limits assumed): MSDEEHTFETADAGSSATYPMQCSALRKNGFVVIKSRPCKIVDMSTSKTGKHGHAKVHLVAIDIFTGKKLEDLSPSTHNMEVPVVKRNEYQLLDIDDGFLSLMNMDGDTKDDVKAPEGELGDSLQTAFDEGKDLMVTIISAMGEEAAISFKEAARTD

[4] = molecular target: T4, Valyl-tRNA synthetase (Saccharomyces cerevisiae M3 (wild type)) (UniProt P07806)
T4 sequence (looked up, limits assumed): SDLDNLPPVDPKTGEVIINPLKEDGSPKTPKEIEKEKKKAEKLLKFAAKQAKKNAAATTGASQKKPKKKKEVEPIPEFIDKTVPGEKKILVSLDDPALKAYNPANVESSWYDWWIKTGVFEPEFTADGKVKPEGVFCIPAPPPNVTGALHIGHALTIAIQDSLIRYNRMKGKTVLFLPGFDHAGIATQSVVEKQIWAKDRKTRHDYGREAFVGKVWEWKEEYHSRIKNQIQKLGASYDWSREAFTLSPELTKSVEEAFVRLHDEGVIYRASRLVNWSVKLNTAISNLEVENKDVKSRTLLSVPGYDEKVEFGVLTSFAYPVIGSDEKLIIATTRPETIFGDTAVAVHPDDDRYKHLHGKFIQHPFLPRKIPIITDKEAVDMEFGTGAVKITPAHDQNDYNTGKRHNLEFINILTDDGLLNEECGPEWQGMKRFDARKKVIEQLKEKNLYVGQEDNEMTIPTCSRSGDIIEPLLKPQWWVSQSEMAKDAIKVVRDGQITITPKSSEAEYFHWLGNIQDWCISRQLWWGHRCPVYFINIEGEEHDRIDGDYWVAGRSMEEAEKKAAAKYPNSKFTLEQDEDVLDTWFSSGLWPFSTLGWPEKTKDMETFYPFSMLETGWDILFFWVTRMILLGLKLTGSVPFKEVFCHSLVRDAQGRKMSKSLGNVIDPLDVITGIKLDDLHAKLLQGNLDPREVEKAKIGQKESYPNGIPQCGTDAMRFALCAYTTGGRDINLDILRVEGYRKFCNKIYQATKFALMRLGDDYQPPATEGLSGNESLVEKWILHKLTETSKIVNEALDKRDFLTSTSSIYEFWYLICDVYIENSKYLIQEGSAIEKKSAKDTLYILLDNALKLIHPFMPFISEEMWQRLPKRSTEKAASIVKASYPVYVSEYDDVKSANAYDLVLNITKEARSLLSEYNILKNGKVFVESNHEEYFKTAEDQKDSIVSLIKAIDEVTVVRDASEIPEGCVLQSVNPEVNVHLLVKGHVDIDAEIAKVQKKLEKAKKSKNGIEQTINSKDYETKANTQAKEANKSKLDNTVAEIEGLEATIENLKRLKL

[5] = molecular target: T5, eIF4A (Saccharomyces cerevisiae M3 (wild type)) (UniProt P10081)
T5 sequence (looked up, limits assumed): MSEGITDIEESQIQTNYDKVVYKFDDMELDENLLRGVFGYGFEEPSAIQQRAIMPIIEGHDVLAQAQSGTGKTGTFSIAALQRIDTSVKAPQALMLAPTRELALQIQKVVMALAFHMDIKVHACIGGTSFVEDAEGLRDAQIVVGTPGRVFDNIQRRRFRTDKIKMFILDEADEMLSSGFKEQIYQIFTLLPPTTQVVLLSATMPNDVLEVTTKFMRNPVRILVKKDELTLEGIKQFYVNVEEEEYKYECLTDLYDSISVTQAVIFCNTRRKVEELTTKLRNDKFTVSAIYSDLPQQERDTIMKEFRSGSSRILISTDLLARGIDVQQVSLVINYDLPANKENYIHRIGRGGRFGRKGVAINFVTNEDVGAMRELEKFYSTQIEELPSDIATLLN

Measured: binding result

UAUCGUCAUGUUGCCAUCCACCAGCGU [Biotin-10-37 RNA (1B-5' UTR)]
binds: all assays above
